# In all, about 31,000 sequences went through this assay and about 1,400 (4.5%) were called active.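 The calls were made as follows: active = median seed-adjusted z-score above 1 or below -1; inactive = the rest.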 Some of the results follow.
# Assay: Novel Modifiers of Survival Motor Neuron (SMN) Protein: Gene Identification via Genome-wide siRNA Screen;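 also: luminescence tracks full-length SMN protein made from the SMN2 reporter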
# Conditions: HEK293T SMN2-luciferase reporter, siRNA knockdown, 72 h; actives lie on both sides
# Method in brief: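 Each of three siRNAs per gene is reverse-transfected (1 pmol) into reporter HEK293T cells whose luciferase output tracks SMN protein level. After 72 h culture, ONE-Glo luminescence is control-normalized, log10-transformed and MAD-standardized; Common Seed Analysis deprioritizes seed-driven hits.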
row,Sequence,median seed-adjusted z-score
1,GCCACGUCCAUAGUUCUGATT against FUT7,inactive: -0.146
2,GAGUAUCCAUCGGUAUCUATT against ZBTB11,inactive: -0.105
3,GGAGCUCUGUUGUGGAGAATT against FCGRT,inactive: -0.00396
4,GGAUUUCAUCGAGAACCGATT against MKRN2,inactive: 0
5,GGAAUUACAACAUAUCGUUTT against TNFSF11,inactive: 0.0212
6,GACGCAUUGUGGAGAGGGATT against COASY,inactive: 0
7,GAUGUGAAAUGGAGAAGUATT against KLF5,inactive: -0.338
8,GGUAGUUAUUACUAGUAAATT against GBE1,inactive: 0
9,GAAUGAGGCUAUACAAAAUTT against GLYAT,inactive: 0.68
10,GGAUCAGCUUCGUACGGUUTT against LAMA4,inactive: 0.691
11,GGUCCCAUCUUGUUGGAUATT against ZNF292,inactive: -0.481
12,CCAUGAUGAUUAUCUCGUUTT against RNF149,inactive: -0.17
13,GGACCAUCAGAGUCGAAGATT against FLNB,inactive: 0.243
14,GAGCUGAGGUGGUAAAGCATT against YARS,inactive: 0.0197
15,GUCUUGUAGAAAUCUCAGATT against RFC3,inactive: 0.733
16,CAAUCAAGCUGUCCACGAATT against EPHA5,inactive: -0.00876
17,GGAUGCUUCUGCUGAACAATT against SSPO,inactive: 0.397
18,GGAUACUUUUUGCUAACUUTT against MYO3A,inactive: 0.0776
19,GCACGCUUAUGGUGGGUGATT against PDXP,inactive: -0.302
20,GGACUGGGAUGAUACACCUTT against SBF2,inactive: 0.569
21,GAAUGUCCCUUUAACUGCATT against NFXL1,inactive: 0.118
22,ACAUCUGCCUGAUCUCAUATT against INDO,inactive: 0.0511

row,Sequence,median seed-adjusted z-score
1,GCAAGGCACGGGCUAAAGUTT against AKT2,inactive: 0
2,ACUUCUUCCAUGUAGCAUUTT against CD1D,inactive: -0.579
3,GCACCUUCAUGGACGGCUATT against NR4A1,inactive: -0.207
4,GGGUCCGAAUACUUCGUGATT against MSLN,inactive: -0.344
5,GAUCGUGUGAUGUCAAAUATT against FLNB,inactive: 0.243
6,CAUGGUGUCUGGUACUUCATT against MAG,inactive: -0.0667
7,GCAUUACCGCGAUGAAUUATT against DNAI1,inactive: -0.783
8,CCCUAUGAAUGUUACGAAUTT against RBAK,inactive: 0
9,AGGCGAUCAUUAUUUCGAATT against DUSP12,inactive: -0.0123
10,CCACGUUUUAACUUUCUAATT against MBTPS2,inactive: -0.324
11,GCAUGCCGUGAAACGUAUATT against NUF2,inactive: -0.658
12,GCACCGUCAAGAUUACGGATT against EIF2AK4,inactive: -0.188
13,UCCUCCGCCUGGAAACUCATT against OTX1,inactive: -0.475
14,CCCACAAUUUGUGACCGAUTT against ABCE1,inactive: -0.0527
15,GUUCCAUCCUGAUUCAAAUTT against PIGM,active: 1.36
16,AGGUGAUCGUCUCCGUCCATT against TNFRSF14,inactive: 0
17,GCAUCUUCACCAAAGUCAUTT against RHEBL1,inactive: -0.268
18,UGGAGUAAAUAGUUCUAAUTT against UBE2V1,inactive: 0.745
19,CUACGGAUGUUUGACUUGATT against CALB2,inactive: 0
20,CAAGGACAAAUUUCCCGUUTT against HOXD8,inactive: -0.883
21,CAGGUUCUCUAAUUGAACATT against NFX1,inactive: -0.256
22,GACUUAUCCUAUAAUUACUTT against TLR2,inactive: -0.0278

row,Sequence,median seed-adjusted z-score
1,CCAUCAUCGUUAUCUACUUTT against SLC5A1,inactive: -0.812
2,GAAGAACGGGUGGUACGUATT against JARID2,inactive: 0.115
3,GCAGCUCCCUCAACACCUUTT against TBCB,inactive: 0.69
4,GUAUCGCACAGGUUCAGUATT against PKP4,inactive: 0.368
5,GCAUAGCCCAUUAUAGACATT against KCNA1,inactive: -0.277
6,AAGGGAAAGUGUACUGGUATT against MMP23B,inactive: 0.288
7,AUUCAUUACUAAGGACAAATT against HOXA13,inactive: -0.136
8,AAAAGAACGAGGAAGUUAUTT against CACNG2,inactive: 0.00759
9,AGGUCAAUGUGACUUUCCATT against KCNJ10,inactive: -0.0371
10,GGAACAACAGGAUUGAGUATT against CLSTN1,inactive: 0.0811
11,GAAUAUCUAGGUACAUGGATT against ADCY10,inactive: -0.573
12,GCUUCAGAGUCAACGGACATT against MICB,inactive: 0.162
13,GAGAAGGCCUAUUCAGACATT against ZBTB7C,inactive: 0.447
14,GCUUCUCGGCUGUCCAUGATT against CLCNKB,inactive: 0.428
15,GGAAUAGUGCUGCCGCUAATT against IREB2,inactive: 0
16,UCAAAUACCUAAUCACUAATT against SLC25A28,inactive: -0.459
17,CUAACGUACCUAACCUAUUTT against CHD7,inactive: 0.138
18,GGAAUUUCACCGUAAAUCATT against IFIT5,inactive: 0
19,CCAAUGCAGAGAACCGAAATT against CACHD1,inactive: 0.119
20,UGCUACAGAUUAUACCUUUTT against CCND3,inactive: -0.965
21,GUGGUGGUUUGGAUAAUAATT against GNB5,inactive: -0.535
22,UCAAAGCACCGUUAACGAATT against CRP,inactive: -0.212

# Part of the list above in a different format.
row | Sequence | median seed-adjusted z-score
20 | CAAGGACAAAUUUCCCGUUTT against HOXD8 | inactive: -0.883
21 | CAGGUUCUCUAAUUGAACATT against NFX1 | inactive: -0.256
1 | CCAUCAUCGUUAUCUACUUTT against SLC5A1 | inactive: -0.812
2 | GAAGAACGGGUGGUACGUATT against JARID2 | inactive: 0.115
3 | GCAGCUCCCUCAACACCUUTT against TBCB | inactive: 0.69
4 | GUAUCGCACAGGUUCAGUATT against PKP4 | inactive: 0.368
5 | GCAUAGCCCAUUAUAGACATT against KCNA1 | inactive: -0.277
6 | AAGGGAAAGUGUACUGGUATT against MMP23B | inactive: 0.288
8 | AAAAGAACGAGGAAGUUAUTT against CACNG2 | inactive: 0.00759
9 | AGGUCAAUGUGACUUUCCATT against KCNJ10 | inactive: -0.0371
10 | GGAACAACAGGAUUGAGUATT against CLSTN1 | inactive: 0.0811
11 | GAAUAUCUAGGUACAUGGATT against ADCY10 | inactive: -0.573
12 | GCUUCAGAGUCAACGGACATT against MICB | inactive: 0.162
13 | GAGAAGGCCUAUUCAGACATT against ZBTB7C | inactive: 0.447
14 | GCUUCUCGGCUGUCCAUGATT against CLCNKB | inactive: 0.428
15 | GGAAUAGUGCUGCCGCUAATT against IREB2 | inactive: 0
17 | CUAACGUACCUAACCUAUUTT against CHD7 | inactive: 0.138
18 | GGAAUUUCACCGUAAAUCATT against IFIT5 | inactive: 0
19 | CCAAUGCAGAGAACCGAAATT against CACHD1 | inactive: 0.119
20 | UGCUACAGAUUAUACCUUUTT against CCND3 | inactive: -0.965
21 | GUGGUGGUUUGGAUAAUAATT against GNB5 | inactive: -0.535
22 | UCAAAGCACCGUUAACGAATT against CRP | inactive: -0.212

# Next part.

row,Sequence,median seed-adjusted z-score
1,ACAUCAACACGAACCAUGATT against DNM2,inactive: 0.00254
2,GCAUACAAGGCACCACGUUTT against ZDHHC6,inactive: 0.199
3,CCAGGUUUGUGGUCCUAUUTT against MAN2A2,inactive: -0.0938
4,GGACCGAACUUUCCACUGUTT against ZNF385A,inactive: -0.968
5,GGAGAUUUUUGGAUGUUUUTT against ACOX3,inactive: 0.658
6,GCACCGAUGUAGAUUAUGATT against SEL1L,inactive: 0.438
7,GGAAGUUUUGGGACAAUAUTT against PCDHB3,inactive: 0.304
8,CGGCUCCAUUAACAUCUAUTT against ENC1,inactive: -0.132
9,GGAGUGGACAGUGCAAUGATT against EGFL7,inactive: 0.8
10,UCACGCUCCUGGACCAUUUTT against SLC6A3,inactive: 0.457
11,AGCUCAUGUUGCUACAGCATT against SLC30A8,inactive: -0.767
12,GCAAGUUAUUGUAUCUUGATT against SAT1,inactive: -0.00791
13,GGCUCAAAUUCUCAGCUGATT against ATF6,inactive: 0.26
14,GCAUAGAUGUGGAUAGCUUTT against CFTR,active: -1.23
15,GGUUUGUCGUCAGUCCCUUTT against ELOVL5,inactive: -0.734
16,GCAGAAAUGACACCAAUAATT against NMB,inactive: 0.746
17,CGGUGACCAUAGUACAACATT against FOXK2,inactive: -0.348
18,GGCCUGGAAUGAACUGAAATT against MUSK,inactive: 0.138
19,GAAUUGGAGAGCACCAAUATT against POLR2B,active: -4.81
20,AGUGAACUCCGGUCCUGCATT against RAB11FIP3,inactive: 0.0361
21,GCCUACUUCUUGUGCAUCUTT against ZDHHC22,inactive: 0.00446
22,CCUUGAUUCUGAUUACCAATT against ENDOD1,inactive: -0.138

row,Sequence,median seed-adjusted z-score
1,CUGGAGCUCCCUAAAUAAATT against ETHE1,inactive: 0
2,GCAAAAGGAUGUUUCCUGUTT against TXNDC8,inactive: -0.281
3,GACAUUCCACCGUACCCUATT against RICS,inactive: 0.665
4,CCAAAACAGUGGAGAGAGATT against BIN3,inactive: 0.16
5,GAAGCUGAUUGAAUACUAUTT against GNPDA1,inactive: 0.0252
6,GAAUCUACAUCGUCAGAUATT against UTX,inactive: 0.157
7,GCACCAUUGCAAGUAACUATT against RFC3,inactive: 0.733
8,CCAUUGACCAGAUCCAUAATT against EIF4G1,inactive: -0.978
9,GGACAUUGUUCUCCCAGAUTT against CYP4F12,inactive: -0.564
10,GAGUCUUUAUUGGUAAAGATT against GLRX,inactive: -0.0561
11,GAGCUGCAACUGACAUCUUTT against PLTP,active: 1.09
12,GUAAUGGACUUGUAGAUAUTT against FSTL5,inactive: -0.881
13,GGUUCCUUAUUAUAGUCCATT against GPR63,inactive: -0.0154
14,GAGUCAACCCAUACAUUAATT against PLS1,inactive: -0.0715
15,UCAUCGAACUGAAUACCAATT against STARD3,inactive: -0.314
16,GCAUCGCCCUGAUGAGUAATT against ADCY7,inactive: -0.0202
17,GCUUCGCUGUCGGAUUUCATT against PXN,inactive: -0.69
18,CCCUGUAAUUUAGCCUUAATT against TXK,inactive: -0.109
19,AGGGAAUCAUCGUCGUGAATT against DYNLRB1,inactive: -0.58
20,GGAGAGAAAUGAGUAGCAATT against ST6GALNAC6,inactive: 0.367

# Source: PubChem BioAssay AID1347426 (Functional Genomics Laboratory (NCATS/FGL), 2020)
